Hit rate of the full screen: of about 310,000 compounds, about 17,000 (5.5%) were called active. Inconclusive means that the source gave no clear call. Such entries were picked first, then a sample of the others. Calls follow the shape of the dose curve; as a rule, active = well fitted inhibition curve with a large enough effect; inconclusive = small, poorly fitted or top-dose-only effect, or effect the other way; inactive = no such curve, though single readings can be large or run the other way. Potencies of inconclusive entries are doubtful fits and often do not repeat.
What follows are compounds tested against Nuclear receptor ROR-gamma (Mus musculus) (UniProt P51450) (assay: qHTS for inhibitors of ROR gamma transcriptional activity). Conditions: Drosophila S2 Gal4-RORgamma UAS-luciferase reporter, 20 h; activity change, negative = inhibition: at 53.6 µM (top of the series).
Procedure, shortened: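 Read-out: Photinus luciferase luminescence; inhibitors lower reporter signal. Insect Schneider cells with Gal4-ROR gamma fusion under metallothionein promoter, UAS reporter; 700 uM final copper sulfate induction, 20 hr, ambient temperature.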
% is scaled to controls: 0 for no effect and ±100 for the full control effect; potency is read from the fitted curve at half-maximal effect.
Also: nearly all actives have a fitted effect of over 60% in size.

Chains of the proteins cited; added tags and fusions are not shown. Lines headed by an entry give the natural chain unless they say otherwise; changes in a name come on top.
UniProt P51450: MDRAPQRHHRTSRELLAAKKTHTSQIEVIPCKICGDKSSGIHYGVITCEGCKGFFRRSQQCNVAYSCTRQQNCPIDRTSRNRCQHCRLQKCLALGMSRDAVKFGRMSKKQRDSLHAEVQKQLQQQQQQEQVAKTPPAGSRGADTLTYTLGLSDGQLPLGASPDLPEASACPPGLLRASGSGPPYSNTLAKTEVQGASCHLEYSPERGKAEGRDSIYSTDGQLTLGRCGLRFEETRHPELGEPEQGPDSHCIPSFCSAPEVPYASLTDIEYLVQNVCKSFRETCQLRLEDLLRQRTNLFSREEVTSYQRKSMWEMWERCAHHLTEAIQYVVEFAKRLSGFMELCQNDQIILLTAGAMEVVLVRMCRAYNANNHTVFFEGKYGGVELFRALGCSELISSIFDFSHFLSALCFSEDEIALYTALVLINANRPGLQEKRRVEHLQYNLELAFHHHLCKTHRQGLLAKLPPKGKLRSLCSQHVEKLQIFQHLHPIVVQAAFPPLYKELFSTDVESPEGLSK

SMILES	activity change, negative = inhibition	Potency
Cc1ccc(C(=O)N2CCN(c3ncccn3)CC2)cc1S(=O)(=O)N1CCCCC1	inactive: 6.88% [at 10 µM]	
O=C(NC(=S)Nc1cccc(NC(=O)c2ccc(Cl)cc2Cl)c1)c1cccs1		active: 20 µM
NNC(=O)C1CC1c1ccccc1 (centres undefined)		inconclusive: 11.2 µM [inhibitor, partial curve, poor fit]
c1cnc(N2CCN(c3ncnc4c3oc3ccccc34)CC2)nc1	inactive: 30.3%	
COc1ccc(NC(=O)NC2CCN(C(C)C)CC2)c(OC)c1	inactive: -20.9%	
O=c1c(-c2ccc(Cl)cc2)nc2cnc(N3CCNCC3)nc2n1CCc1ccccc1	inactive: -7.65%	
N#CCCn1cc(/C=C2\NC(=S)N(c3ccccc3)C2=O)c(-c2ccc(-c3ccccc3)cc2)n1	inactive: -18.9%	
CC(C)C1COC(c2cccc3ccccc23)=N1 (centres undefined)		active: 20 µM
COC(=O)c1ccccc1NC(=S)NC(=O)c1ccc(C)cc1		active: 15.8 µM
CCNC(=S)NS(=O)(=O)c1ccc(Cl)cc1		active: 22.4 µM
COc1ccc(-c2noc(CCCC(=O)Nc3ccc(C(N)=O)cc3)n2)cc1		active: 1.58 µM
Cc1ccc2nc(CSc3nc(C)cc(C)c3C#N)[nH]c2c1		inconclusive: 15.8 µM [inhibitor, single point]
Cc1ccc(CNC(=O)Cn2c(=O)c3sccc3n(Cc3ccc([N+](=O)[O-])cc3)c2=O)cc1		inconclusive: 20 µM [inhibitor, single point]
O=c1c2ccccc2nc(SCc2cccc(F)c2)n1Cc1ccco1		inconclusive: 35.5 µM [activator, single point]
COc1ccccc1CNC(=S)NCc1ccc(Cl)cc1		active: 3.98 µM
CC(C)(C)SCCNC(=O)/C=C/c1cccc([N+](=O)[O-])c1		inconclusive: 8.91 µM [activator, partial curve]
COc1ccccc1C(=O)NC(CCSC)C(=O)OC(C)C(N)=O (centres undefined)	inactive: 27.1%	
COc1ccc(-c2noc(=O)n2CC(=O)N2CCC(Cc3ccccc3)CC2)cc1		inconclusive: 2.82 µM [activator, partial curve, poor fit]
COc1cc(/C=N\Nc2ccc([N+](=O)[O-])cc2)ccc1OCC(=O)Nc1ccc(C)c(C)c1		inconclusive: 17.8 µM [inhibitor, single point]
CCN(CC)S(=O)(=O)c1ccc(OC)c(NC(=O)C2CC(=O)N(c3ccc(C)cc3)C2)c1 (centres undefined)		inconclusive: 20 µM [activator, single point]
COc1ccc(/C(C)=N/N2C(=O)c3ccccc3NC2c2ccc(O)c(OC)c2)cc1 (centres undefined)		inconclusive: 12.6 µM [inhibitor, partial curve]
CCNC(=S)N(Cc1ccccc1)Cc1nc2ccccc2c(=O)[nH]1		active: 6.31 µM
Cc1ccsc1/C=N\NC(=O)Cn1nnc2ccccc21		active: 14.1 µM
CC(=O)Nc1nnc(-c2ccc(Cl)s2)o1		active: 3.55 µM
COc1ccc(/C=N/Nc2ncccc2[N+](=O)[O-])c(OC)c1		inconclusive: 11.2 µM [inhibitor, single point]

SMILES	activity change, negative = inhibition	Potency
Cc1ccc(SC(=O)COc2ccccc2C)cc1	inactive: 2.77%	
Cc1ccc(/C=N/Nc2ccc(F)cc2)s1	inactive: -2.38%	
CCCOc1ccc(C(=O)NC(=S)N2CCN(c3cc4c(cc3F)c(=O)c(C(=O)O)cn4CC)CC2)cc1		active: 1.78 µM
O=C(Nc1cccc2ncccc12)c1ccc2c(c1)OCCO2		inconclusive: 7.94 µM [activator, partial curve]
C#CCN1C(=O)C(O)(CC(=O)/C=C/c2ccco2)c2ccccc21 (centres undefined)	inactive: 29.5%	
CCn1c2c(c3cc(OCC(C)C)ccc31)CCCC2=O		inconclusive: 35.5 µM [activator, single point]
COc1ccccc1-n1c(SCC(=O)Nc2ccc3c(c2)OCO3)nc2c(c1=O)SCC2		inconclusive: 11.2 µM [activator, partial curve, poor fit]
c1coc(CNc2ncnc3sc4c(c23)CCCCC4)c1	inactive: -18.4%	
CCCCOC(=O)CSC1=C(C#N)C(c2ccc3c(c2)OCO3)CC(=O)N1 (centres undefined)		inconclusive: 0.316 µM [inhibitor, partial curve, poor fit]
CC(C)(C)NC(=O)N1CCN(c2ncccc2C(F)(F)F)CC1	inactive: 9.82%	
Brc1ccc(CSc2nnc(-c3ccccn3)n2Cc2ccco2)cc1		inconclusive: 14.1 µM [inhibitor, partial curve]
CCNC(=O)NC(=O)COC(=O)CCCSc1nc2ccccc2s1		inconclusive: 7.94 µM [inhibitor, partial curve]
COc1ccc(-c2nc3ccccc3n2CCC(C)C)cc1OC		active: 11.2 µM
CC(C)(C)c1cc(NC(=O)c2ccco2)no1		inconclusive: 10 µM [inhibitor, partial curve, poor fit]
COCCNc1oc(-c2ccccc2Cl)nc1C#N		inconclusive: 15.8 µM [activator, single point]
CCOC(=O)N1CCN(C(=O)c2cc3c(s2)-c2ccccc2OC3)CC1		inconclusive: 0.1 µM [activator, full curve, poor fit]
Cc1ccc(C)c(S(=O)(=O)c2c(C)cc(C)[nH]c2=O)c1	inactive: 29.3%	
COc1cc(/C=C/C(=O)OCC(=O)NC(=O)NC(C)C)cc(S(=O)(=O)N2CCc3ccccc32)c1OC	inactive: -13.4%	
Cc1cc(-n2c(C)cc(C(=O)COc3ccc4ccc(=O)oc4c3)c2C)no1		inconclusive: 3.16 µM [activator, partial curve]
CC1CCc2c(sc3ncn(N)c(=N)c23)C1 (centres undefined)		inconclusive: 20 µM [inhibitor, single point]
CCOc1ccccc1/C=C/c1onc(C)c1S(=O)(=O)N1CCC(C(=O)NC)CC1		inconclusive: 5.62 µM [inhibitor, partial curve]
Cc1ccccc1NC(=O)C(=O)N/N=C/c1cccc(Br)c1	inactive: -10.8%	
COc1cccc(-n2c(SCC(=O)NCc3cccs3)nc3ccccc3c2=O)c1		inconclusive: 35.5 µM [activator, single point]
O=C(Nc1nccs1)C1CC(=O)N(c2ccccc2)C1 (centres undefined)	inactive: 11.8%	

Another view of three compounds above:
SMILES,"activity change, negative = inhibition",Potency
COc1ccc(-c2nc3ccccc3n2CCC(C)C)cc1OC,,active: 11.2 µM
CC1CCc2c(sc3ncn(N)c(=N)c23)C1 (centres undefined),,"inconclusive: 20 µM [inhibitor, single point]"
COc1cccc(-n2c(SCC(=O)NCc3cccs3)nc3ccccc3c2=O)c1,,"inconclusive: 35.5 µM [activator, single point]"
